Assay results: article PMC12670408, “Backbone Alterations in Cyclic Peptides Influence Both Membrane Permeability and Biological Activity” (Journal of Medicinal Chemistry, 2025)

Columns and labels:
[1] = set-up: method as in Fairlie group; settings: ref Fairlie group; cited from earlier work
[2] = CHI-IAM chromatography (immobilized artificial membrane); assay type: physicochemical; settings: IAM.PC.DD2 column, ammonium acetate buffer pH 7.4
Description: With all peptides in hand we first set out to estimate their passive membrane permeability using the immobilized artificial membrane (IAM) chromatography technique. , An IAM column is packed with a reverse phase like material modified with phospholipids to mimic a cellular membrane. After analysis of a compound its retention time is compared to a set of calibration compounds to yield a CHI-IAM value. A higher value indicates a stronger membrane interaction, which can be correlated to passive membrane permeability.
CHI-IAM chromatography was carried out on an Agilent 1200 Series LC (Agilent Technologies, USA) equipped with a 4.6 mm × 100 mm to 150 mm IAM.PC.DD2 column from Regis Technologies, Inc., eluting at 1.5 mL/min, eluting over a gradient of 0% – 85% MeCN with a 50 mM ammonium acetate buffer adjusted to pH 7.4 over 4.75 min.

In the case of `CC[C@H](C)[C@@H]1NC(=O)[C@@H]2CCCN2C(=O)[C@H](Cc2ccccc2)NC(=O)[C@H](C(C)(C)C)NC(=O)c2csc(n2)[C@H]([C@@H](C)CC)NC(=O)[C@@H]2CCCN2C1=O` [SA-A2, Danamide F], the “bioavailability (F)” value [1] is given as 51% and the CHI-IAM [2] is given as 45.23 ± 0.18.
